In PubChem BioAssay AID328 (DTP/NCI, 2004):
The list does not hold the whole screen: it is rich in T/C values a quarter to a half above the control, in often repeated tests (any T/C) and in doses without a T/C. Other doses and runs of a compound stand elsewhere. T/C: endpoint of the treated group in % of that of the vehicle group. Some entries give survivors of the animals treated and no T/C: the source files T/C as zero there, which appears to mark a toxic dose or a test without result, not a measured value. Some doses without a T/C left all or most animals alive at the check, yet need not have been tolerated: survival well below the control is almost never listed, so the zero probably covers shortened survival too. Counts of survivors are from the toxicity check (mostly the fifth day) where no day follows; animals may have died later. Schedules are NCI's codes, read here as Q, the interval in days (D) or hours (H), X, the number of doses. Where survival is the endpoint, this PubChem deposit counts one and a half times the control or more as active, and values a quarter to a half above the control carry no call in these data; other NCI protocols may use other cut-offs. Some T/C values carry the count of animals alive at the toxicity check (mostly the fifth day); where none is given, no animal had died by that day. Some entries hold several experiments; their values stand side by side, smallest first.

Tested on: BDF1 mice, P388 leukemia ip, median survival T/C
Experiment: NCI In Vivo Anticancer Drug Screen. Data for tumor model P388 Leukemia (intraperitoneal) in B6D2F1 (BDF1) mice
Details: T/C endpoint: median survival time, higher T/C = longer survival
How it was run: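 Each value expresses how treatment altered survival: treated-mouse outcome over vehicle-mouse outcome, both groups bearing the transplanted tumour.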

Question: Which survivor count (dose: 400.0 mg/kg/injection, schedule: Q01DX009 (ip), vehicle: saline with Tween-80) does the source give for `CC(=O)N(C)c1ccc(/C=C2\C=Cc3ccccc32)cc1` here?
Answer: The survivor count was 3 of 6.

Question: And the survivor count (dose: 400.0 mg/kg/injection, schedule: Q04DX003 (ip), vehicle: saline with Tween-80)?
Answer: Its survivor count is 6 of 6.

Question: Which survivor count (dose: 200.0 mg/kg/injection, schedule: Q01DX009 (ip), vehicle: saline sonified) does the source give for `c1ccc(CSc2ncnc3nc[nH]c23)nc1` here?
Answer: Its survivor count is 4 of 6.

Question: How did the T/C (dose: 50.0 mg/kg/injection, schedule: Q01DX001 (ip), vehicle: saline with Tween-80) turn out when `CC1CCC2(C(=O)O)CCC3(C)C(=CCC4C5(C)CC(O)C(O)C(C)(C(=O)O)C5CCC43C)C2C1(C)O` (configuration not stated) was run?
Answer: The T/C was 131 % of control.

Question: For `FC(F)(F)c1ccc2nc(CI)c(CI)nc2c1`, which T/C (dose: 3.12 mg/kg/injection, schedule: Q01DX009 (ip), vehicle: saline with Tween-80) is on record?
Answer: Its T/C is 126 % of control.

Question: And the T/C (dose: 6.25 mg/kg/injection, schedule: Q01DX009 (ip), vehicle: saline with Tween-80)?
Answer: The T/C was 136 % of control.

Question: What about the T/C (dose: 11.8 mg/kg/injection, schedule: Q01DX009 (ip), vehicle: saline) of the same compound?
Answer: Its T/C is 140 % of control.

Question: And the T/C (dose: 18.0 mg/kg/injection, schedule: Q01DX009 (ip), vehicle: saline)?
Answer: The T/C was 130 and 131 % of control [4 of 6 alive].

Question: What about the survivor count (dose: 27.0 mg/kg/injection, schedule: Q01DX009 (ip), vehicle: saline) of the same compound?
Answer: The survivor count was 0 of 6.

Question: And the survivor count (dose: 50.0 mg/kg/injection, schedule: Q04DX003 (ip), vehicle: Klucel (hydroxypropylcellulose) (HPC))?
Answer: Its survivor count is 0 of 6.

Question: And the survivor count (dose: 100.0 mg/kg/injection, schedule: Q04DX003 (ip), vehicle: other)?
Answer: Its survivor count is 0 of 6.

Question: What about the survivor count (dose: 200.0 mg/kg/injection, schedule: Q04DX003 (ip), vehicle: other) of the same compound?
Answer: Its survivor count is 0 of 6.

Question: And the survivor count (dose: 400.0 mg/kg/injection, schedule: Q04DX003 (ip), vehicle: other)?
Answer: The survivor count was 0 of 6.

Question: How did the survivor count (dose: 100.0 mg/kg/injection, schedule: Q01DX009 (ip), vehicle: Klucel (hydroxypropylcellulose) (HPC)) turn out when `C[C@]12CCC(=O)C=C1CC[C@@H]1[C@@H]2[C@@H](O)C[C@@]2(C)[C@H]1CC[C@]2(O)C(=O)COC(=O)CCC1CCCC1` was run?
Answer: Its survivor count is 6 of 6.

Question: What about the survivor count (dose: 200.0 mg/kg/injection, schedule: Q01DX009 (ip), vehicle: Klucel (hydroxypropylcellulose) (HPC)) of the same compound?
Answer: Its survivor count is 6 of 6.

Question: And the survivor count (dose: 400.0 mg/kg/injection, schedule: Q01DX009 (ip), vehicle: Klucel (hydroxypropylcellulose) (HPC))?
Answer: Its survivor count is 6 of 6.

Question: Which survivor count (dose: 50.0 mg/kg/injection, schedule: Q01DX009 (ip), vehicle: saline with Tween-80) does the source give for `CC(=O)CC(OC(=O)c1cc([N+](=O)[O-])cc([N+](=O)[O-])c1)(C(F)(F)F)C(F)(F)F` here?
Answer: The survivor count was 2 of 3.
